The record followed here is PubChem BioAssay AID328 (DTP/NCI, 2004).

SMILES strings stand for the structures. The list is a part of this screen's results and no random one: it is rich in T/C values a quarter to a half above the control, in often repeated tests (any T/C) and in doses without a T/C. Other doses and runs of a compound stand elsewhere. T/C gives the treated animals as a percentage of the vehicle group. Some entries give survivors of the animals treated and no T/C: the source files T/C as zero there, which appears to mark a toxic dose or a test without result, not a measured value. Some doses without a T/C left all or most animals alive at the check, yet need not have been tolerated: survival well below the control is almost never listed, so the zero probably covers shortened survival too. Counts of survivors are from the toxicity check (mostly the fifth day) where no day follows; animals may have died later. Schedules are NCI's codes, taken here to give the interval after Q, in days (D) or hours (H), and the number of doses after X. Where survival is the endpoint, the PubChem record calls one and a half times the control and up active, and a quarter to a half above the control has no call in these data; cut-offs in other NCI protocols can differ. Some T/C values carry the count of animals alive at the toxicity check (mostly the fifth day); where none is given, no animal had died by that day.

The test has as its system BDF1 mice, P388 leukemia ip, median survival T/C. In words: NCI In Vivo Anticancer Drug Screen. Data for tumor model P388 Leukemia (intraperitoneal) in B6D2F1 (BDF1) mice. As to conditions: T/C endpoint: median survival time, higher T/C = longer survival. A digest of the protocol:
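Transplantable tumour in mice; compound vs vehicle dosing; survival scored; ratio of treated to control reported.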

Setting [1] is: dose: 100.0 mg/kg/injection, schedule: Q01DX009 (ip), vehicle: Klucel (hydroxypropylcellulose) (HPC).
[2] abbreviates: dose: 200.0 mg/kg/injection, schedule: Q04DX003 (ip), vehicle: Klucel (hydroxypropylcellulose) (HPC).
Setting [3] is: dose: 400.0 mg/kg/injection, schedule: Q04DX003 (ip), vehicle: Klucel (hydroxypropylcellulose) (HPC).
Setting [4] is: dose: 200.0 mg/kg/injection, schedule: Q01DX009 (ip), vehicle: saline with Tween-80.

On to `NC(CCSCc1ccc(N(CCCl)CCCl)cc1)C(=O)O` (centres undefined), for which the T/C by setting is: (dose: 2.6 mg/kg/injection, schedule: Q04DX003 (ip), vehicle: saline with Tween-80) 140 % of control; (dose: 4.0 mg/kg/injection, schedule: Q04DX003 (ip), vehicle: saline with Tween-80) 145 % of control; (dose: 25.0 mg/kg/injection, schedule: Q01DX009 (ip), vehicle: Klucel (hydroxypropylcellulose) (HPC)) 135 % of control; under setting [2], 129 % of control; (dose: 750.0 micrograms/kg/injection, schedule: Q04DX003 (ip), vehicle: saline with Tween-80) 135 % of control; (dose: 1500.0 micrograms/kg/injection, schedule: Q04DX003 (ip), vehicle: saline with Tween-80) 145 % of control. In addition, the survivor count is, setting by setting: under setting [1], 6 of 6; under setting [3], 6 of 6.
For the compound `Cn1c(CCCC(=O)O)nc2cc(N(CCCl)CCCl)ccc21`, the T/C is 125 % of control (dose: 2.8 mg/kg/injection, schedule: Q04DX003 (ip), vehicle: saline) and 125 % of control (dose: 20.0 mg/kg/injection, schedule: Q01DX009 (ip), vehicle: saline).
As to `Nc1ccc(CCc2ccccc2)cc1`, the survivor count is, setting by setting: (dose: 115.0 mg/kg/injection, schedule: Q01DX009 (ip), vehicle: saline with Tween-80) 6 of 6; (dose: 170.0 mg/kg/injection, schedule: Q01DX009 (ip), vehicle: saline with Tween-80) 0 of 6; (dose: 225.0 mg/kg/injection, schedule: Q04DX003 (ip), vehicle: saline with Tween-80) 6 of 6.
On to `CCCCNP(=O)(N1CC1C)N1CC1C` (centres undefined), for which, for the setting “dose: 33.0 mg/kg/injection, schedule: Q04DX003 (ip), vehicle: saline”, the T/C is 145 % of control. Also, the survivor count (dose: 200.0 mg/kg/injection, schedule: Q04DX003 (ip), vehicle: saline) was 5 of 6 and the survivor count (dose: 400.0 mg/kg/injection, schedule: Q04DX003 (ip), vehicle: saline) is on record as 1 of 6.
Regarding `COC(=O)C1(C(=O)OC)N=C(C)OO1`, the T/C (dose: 25.0 mg/kg/injection, schedule: Q01DX009 (ip), vehicle: saline with Tween-80) is 149 % of control.
As to `CCOCN(COCC)C(C)Cc1ccccc1` (centres undefined), the T/C is, setting by setting: (dose: 50.0 mg/kg/injection, schedule: Q01DX009 (ip), vehicle: saline with Tween-80) 139 % of control; (dose: 100.0 mg/kg/injection, schedule: Q01DX009 (ip), vehicle: saline with Tween-80) 148 % of control. Besides, the survivor count under setting [4] is reported as 4 of 6.
For the compound `[O-][n+]1c(CN2CCCCC2)nc2cccc3c2c1-c1ccccc1-3`, the T/C runs as follows: under setting [1], 144 % of control; under setting [4], 131 % of control [7 of 8 alive]; (dose: 200.0 mg/kg/injection, schedule: Q08HX027 (ip), vehicle: saline) 128 % of control; (dose: 400.0 mg/kg/injection, schedule: Q01DX009 (ip), vehicle: Klucel (hydroxypropylcellulose) (HPC)) 144 % of control; (dose: 400.0 mg/kg/injection, schedule: Q01DX009 (ip), vehicle: saline with Tween-80) 133 % of control. The survivor count (dose: 100.0 mg/kg/injection, schedule: Q01DX009 (ip), vehicle: saline) is 5 of 8.
Consider `COc1cccc2c1C(=O)c1c(O)c3c(c(O)c1C2=O)CC(O)(C(=O)CO)CC3OC1CC(N)C(O)C(C)O1` (centres undefined) (tested in a mixture with another compound), for which, for the setting “dose: 25.0 mg/kg/injection, schedule: Q01DX009 (ip), vehicle: other”, the T/C is 127 % of control.
For `ClC1=C(Cl)C2(Cl)C3C4CC(C5OC45)C3C1(Cl)C2(Cl)Cl` (centres undefined), the survivor count was 6 of 6 (dose: 6.25 mg/kg/injection, schedule: Q01DX009 (ip), vehicle: suspension in saline); 6 of 6 (dose: 12.5 mg/kg/injection, schedule: Q01DX009 (ip), vehicle: suspension in saline); 6 of 6 (dose: 25.0 mg/kg/injection, schedule: Q01DX009 (ip), vehicle: suspension in saline).
Regarding `CN1CCN(CCNc2ccc(CO)c3sc4ccccc4c(=O)c23)CC1`, the survivor count (dose: 150.0 mg/kg/injection, schedule: Q01DX009 (ip), vehicle: Klucel (hydroxypropylcellulose) (HPC)) is listed as 6 of 6.
`CCCCCCCCCCCCCCCCSc1ccc(C)cc1`: the survivor count runs as follows: (dose: 100.0 mg/kg/injection, schedule: Q04DX003 (ip), vehicle: Klucel (hydroxypropylcellulose) (HPC)) 6 of 6; under setting [2], 6 of 6; under setting [3], 6 of 6.
